Some peptides are written in HELM: one residue between dots, names in brackets for other building blocks, links after the first $.

The data set can be described thus: general procedure: Fmoc solid-phase peptide synthesis; Rink amide resin; Oxyma/DIC. The conditions noted are these: whole synthesis, 214 nm, scale of the general procedure 0.1 mmol.
For the substance “PEPTIDE1{[dY].I.C.V.[W1Me].Q.D.W.G.A.H.R.C.[mI].[am]}$PEPTIDE1,PEPTIDE1,3:R3-13:R3$$$V2.0”, the “final HPLC purity” value turned out to be 79.3%. With “PEPTIDE1{[dY].I.C.V.[W1Me].Q.D.W.[Sar].A.H.S.C.[mI].[am]}$PEPTIDE1,PEPTIDE1,3:R3-13:R3$$$V2.0” the figure was 96.1%; with “PEPTIDE1{[dY].I.C.V.[W1Me].Q.S.W.[Sar].A.H.R.C.[mI].[am]}$PEPTIDE1,PEPTIDE1,3:R3-13:R3$$$V2.0”, 100.0%. With “PEPTIDE1{[dY].I.C.V.[W1Me].Q.S.W.[Sar].A.H.S.C.[mI].[am]}$PEPTIDE1,PEPTIDE1,3:R3-13:R3$$$V2.0” the figure was 94.2%. In the case of yICVWQDWSarAHRCmI, the “final HPLC purity” value is listed as 100.0%.
